Results taken from article PMC11920102.
Positions count from the first letter of the chain named. Numbers in names are those of the source. These are yes or no findings as the source states them, for the method shown. Some results given as binding are weak or reduced against the parent protein; the word gives no strength.

The chains behind the UniProt entries cited, without tags or fusion partners. Where a name states a change or a piece, a line headed by the entry shows the natural chain unless it says otherwise. A line that says so, or that is headed by a name, gives the form on record, which may keep a tag or linker.
Drp1 (Homo sapiens, Isoform 3), fluorescently tagged (O00429-4, form named): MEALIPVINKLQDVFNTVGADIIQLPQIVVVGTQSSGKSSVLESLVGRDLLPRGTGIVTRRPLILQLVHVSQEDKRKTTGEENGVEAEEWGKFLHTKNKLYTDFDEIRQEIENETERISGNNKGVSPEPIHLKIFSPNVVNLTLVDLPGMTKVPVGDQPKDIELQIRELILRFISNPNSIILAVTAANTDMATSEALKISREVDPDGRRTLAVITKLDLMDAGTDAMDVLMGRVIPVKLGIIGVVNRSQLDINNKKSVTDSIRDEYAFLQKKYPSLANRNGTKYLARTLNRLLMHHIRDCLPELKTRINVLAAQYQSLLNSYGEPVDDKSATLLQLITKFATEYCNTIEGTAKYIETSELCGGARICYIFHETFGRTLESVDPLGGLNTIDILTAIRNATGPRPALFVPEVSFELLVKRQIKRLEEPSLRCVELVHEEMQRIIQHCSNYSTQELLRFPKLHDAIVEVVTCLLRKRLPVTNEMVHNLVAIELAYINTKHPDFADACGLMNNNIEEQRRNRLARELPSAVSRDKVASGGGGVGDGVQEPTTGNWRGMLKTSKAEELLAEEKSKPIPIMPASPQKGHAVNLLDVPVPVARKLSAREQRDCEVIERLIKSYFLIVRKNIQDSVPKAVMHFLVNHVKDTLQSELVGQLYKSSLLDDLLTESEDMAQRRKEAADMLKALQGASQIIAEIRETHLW

How the values were obtained:
Assay in all cases: rapamycin-induced rerouting to the OMM (live-cell confocal imaging); FKBP-tagged bait rerouted to the OMM-targeted FRB with rapamycin in live cells; relocalisation of the fluorescently tagged prey followed in real time
[1] = target: T1, FKBP-EndoB1^CT (Residues 269–365) (Homo sapiens) (UniProt Q9Y371)
T1 sequence: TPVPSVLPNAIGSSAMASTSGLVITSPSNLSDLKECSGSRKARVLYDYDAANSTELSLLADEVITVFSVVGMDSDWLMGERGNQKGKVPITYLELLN

[2] = target: T2, EndoB1 (Full-Length, Residues 1–365) (Homo sapiens), Q9Y371; settings: remark: other sources report otherwise
T2 chain: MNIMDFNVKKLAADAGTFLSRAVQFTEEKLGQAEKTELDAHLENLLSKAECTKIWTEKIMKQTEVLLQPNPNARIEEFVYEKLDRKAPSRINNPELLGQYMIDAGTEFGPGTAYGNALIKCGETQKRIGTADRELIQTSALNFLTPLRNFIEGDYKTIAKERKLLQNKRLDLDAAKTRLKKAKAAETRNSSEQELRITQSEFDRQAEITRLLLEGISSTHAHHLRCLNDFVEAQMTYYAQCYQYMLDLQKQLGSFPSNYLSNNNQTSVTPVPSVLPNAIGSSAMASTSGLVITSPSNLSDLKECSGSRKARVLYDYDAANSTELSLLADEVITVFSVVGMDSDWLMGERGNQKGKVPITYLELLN

[3] = target: T3, EndoB1 (Full-Length, Residues 1–365) (Homo sapiens) (UniProt Q9Y371)
T3 sequence: T2 chain

[4] = target: T4, EndoB1^L227D (Homo sapiens) (UniProt Q9Y371)
T4 sequence: T2 chain with L227D

Drp1 (Homo sapiens, Isoform 3), fluorescently tagged (from UniProt O00429-4 1-699)
binding [1]: no binding

B1: EndoB1 (Full-Length, Residues 1–365), Q9Y371 1-365 (protein)
chain: T2 chain
binding [2]: binds

B2: EndoB1^L227D (protein, UniProt Q9Y371 1-365)
chain: T2 chain with L227D
binding [3]: no binding

B3: EndoB1 (Full-Length, Residues 1–365) (protein, UniProt Q9Y371 1-365)
chain: T2 chain
binding [4]: no binding
